In the supplement of paper PMC8728848:
The list shows a part of the results.

How the values were obtained:
Assay in all cases: glycan array binding signal (z-score within array); higher = stronger binding
Conditions in all cases: glycan notation: IUPAC condensed, linker removed
[1] = target: Neu5Ac(a2-6)Gal(b1-3)GlcNAc(b1-3)[Gal(b1-4)GlcNAc(b1-6)]Gal(b1-4)Glc
In short: (§1)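 Glycan array data came from 3228 arrays in the Consortium for Functional Glycomics database, and only arrays with an available protein sequence were kept. Glycan names were put into IUPAC-condensed notation, and columns mapping to the same glycan were averaged. The binding signal is a within-array Z-score, averaged across arrays of one protein sequence run at different concentrations or buffers and across linkers. A negative Z-score can be read as non-binding.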

Neu5Ac(a2-6)Gal(b1-4)Glc = target: Neu5Ac(a2-6)Gal(b1-4)Glc
In short: as §1

[2] = target: Neu5Ac(a2-6)Gal(b1-4)GlcNAc
In short: as §1

[3] = target: Neu5Ac(a2-6)Gal(b1-4)GlcNAc(b1-2)Man
In short: as §1

[4] = target: Neu5Ac(a2-6)Gal(b1-4)GlcNAc(b1-2)Man(a1-3)Man(b1-4)GlcNAc(b1-4)GlcNAc
In short: as §1

[5] = target: Neu5Ac(a2-6)Gal(b1-4)GlcNAc(b1-2)Man(a1-3)[Gal(b1-4)GlcNAc(b1-2)Man(a1-6)]Man(b1-4)GlcNAc(b1-4)GlcNAc
In short: as §1

[6] = target: Neu5Ac(a2-6)Gal(b1-4)GlcNAc(b1-2)Man(a1-3)[GlcNAc(b1-2)Man(a1-6)]Man(b1-4)GlcNAc(b1-4)GlcNAc
In short: as §1

[7] = target: Neu5Ac(a2-6)Gal(b1-4)GlcNAc(b1-2)Man(a1-3)[GlcNAc(b1-4)][Neu5Ac(a2-6)Gal(b1-4)GlcNAc(b1-2)Man(a1-6)]Man(b1-4)GlcNAc(b1-4)GlcNAc
In short: as §1

[8] = target: Neu5Ac(a2-6)Gal(b1-4)GlcNAc(b1-2)Man(a1-3)[Man(a1-6)]Man(b1-4)GlcNAc(b1-4)GlcNAc
In short: as §1

[9] = target: Neu5Ac(a2-6)Gal(b1-4)GlcNAc(b1-2)Man(a1-3)[Neu5Ac(a2-3)Gal(b1-4)GlcNAc(b1-2)Man(a1-6)]Man(b1-4)GlcNAc(b1-4)GlcNAc
In short: as §1

[10] = target: Neu5Ac(a2-6)Gal(b1-4)GlcNAc(b1-2)Man(a1-3)[Neu5Ac(a2-6)Gal(b1-4)GlcNAc(b1-2)Man(a1-6)]Man(b1-4)GlcNAc(b1-4)GlcNAc
In short: as §1

[11] = target: Neu5Ac(a2-6)Gal(b1-4)GlcNAc(b1-2)Man(a1-3)[Neu5Ac(a2-6)Gal(b1-4)GlcNAc(b1-2)Man(a1-6)]Man(b1-4)GlcNAc(b1-4)[Fuc(a1-6)]GlcNAc
In short: as §1

[12] = target: Neu5Ac(a2-6)Gal(b1-4)GlcNAc(b1-2)Man(a1-6)Man(b1-4)GlcNAc(b1-4)GlcNAc
In short: as §1

[13] = target: Neu5Ac(a2-6)Gal(b1-4)GlcNAc(b1-2)Man(a1-6)[Gal(b1-4)GlcNAc(b1-2)Man(a1-3)]Man(b1-4)GlcNAc(b1-4)GlcNAc
In short: as §1

[14] = target: Neu5Ac(a2-6)Gal(b1-4)GlcNAc(b1-2)Man(a1-6)[GlcNAc(b1-2)Man(a1-3)]Man(b1-4)GlcNAc(b1-4)GlcNAc
In short: as §1

[15] = target: Neu5Ac(a2-6)Gal(b1-4)GlcNAc(b1-2)Man(a1-6)[Man(a1-3)]Man(b1-4)GlcNAc(b1-4)GlcNAc
In short: as §1

[16] = target: Neu5Ac(a2-6)Gal(b1-4)GlcNAc(b1-2)[Neu5Ac(a2-6)Gal(b1-4)GlcNAc(b1-4)]Man(a1-3)[GlcNAc(b1-4)][Neu5Ac(a2-6)Gal(b1-4)GlcNAc(b1-2)[Neu5Ac(a2-6)Gal(b1-4)GlcNAc(b1-6)]Man(a1-6)]Man(b1-4)GlcNAc(b1-4)GlcNAc
In short: as §1

[17] = target: Neu5Ac(a2-6)Gal(b1-4)GlcNAc(b1-2)[Neu5Ac(a2-6)Gal(b1-4)GlcNAc(b1-4)]Man(a1-3)[GlcNAc(b1-4)][Neu5Ac(a2-6)Gal(b1-4)GlcNAc(b1-4)Man(a1-6)]Man(b1-4)GlcNAc(b1-4)GlcNAc
In short: as §1

[18] = target: Neu5Ac(a2-6)Gal(b1-4)GlcNAc(b1-2)[Neu5Ac(a2-6)Gal(b1-4)GlcNAc(b1-6)]Man(a1-6)[Neu5Ac(a2-6)Gal(b1-4)GlcNAc(b1-2)Man(a1-3)][GlcNAc(b1-4)]Man(b1-4)GlcNAc(b1-4)GlcNAc
In short: as §1

[19] = target: Neu5Ac(a2-6)Gal(b1-4)GlcNAc(b1-3)Gal(b1-3)GlcNAc
In short: as §1

[20] = target: Neu5Ac(a2-6)Gal(b1-4)GlcNAc(b1-3)Gal(b1-4)GlcNAc
In short: as §1

[21] = target: Neu5Ac(a2-6)Gal(b1-4)GlcNAc(b1-3)Gal(b1-4)GlcNAc(b1-2)Man(a1-3)[Neu5Ac(a2-6)Gal(b1-4)GlcNAc(b1-3)Gal(b1-4)GlcNAc(b1-2)Man(a1-6)]GalNAc
In short: as §1

[22] = target: Neu5Ac(a2-6)Gal(b1-4)GlcNAc(b1-3)Gal(b1-4)GlcNAc(b1-3)Gal(b1-4)GlcNAc
In short: as §1

[23] = target: Neu5Ac(a2-6)Gal(b1-4)GlcNAc(b1-3)Gal(b1-4)GlcNAc(b1-3)Gal(b1-4)GlcNAc(b1-2)Man(a1-3)[Neu5Ac(a2-6)Gal(b1-4)GlcNAc(b1-3)Gal(b1-4)GlcNAc(b1-3)Gal(b1-4)GlcNAc(b1-2)Man(a1-6)]GalNAc
In short: as §1

[24] = target: Neu5Ac(a2-6)Gal(b1-4)GlcNAc(b1-3)Gal(b1-4)GlcNAc(b1-3)GalNAc
In short: as §1

[25] = target: Neu5Ac(a2-6)Gal(b1-4)GlcNAc(b1-3)Gal(b1-4)GlcNAc(b1-3)[Neu5Ac(a2-6)Gal(b1-4)GlcNAc(b1-3)Gal(b1-4)GlcNAc(b1-6)]GalNAc
In short: as §1

[26] = target: Neu5Ac(a2-6)Gal(b1-4)GlcNAc(b1-3)Gal(b1-4)GlcNAc(b1-6)[Gal(b1-3)]GalNAc
In short: as §1

[27] = target: Neu5Ac(a2-6)Gal(b1-4)GlcNAc(b1-3)Gal(b1-4)[Fuc(a1-3)]GlcNAc(b1-3)Gal(b1-4)[Fuc(a1-3)]GlcNAc
In short: as §1

[28] = target: Neu5Ac(a2-6)Gal(b1-4)GlcNAc(b1-3)GalNAc
In short: as §1

[29] = target: Neu5Ac(a2-6)Gal(b1-4)GlcNAc(b1-3)[Neu5Ac(a2-6)Gal(b1-4)GlcNAc(b1-6)]GalNAc
In short: as §1

[30] = target: Neu5Ac(a2-6)Gal(b1-4)GlcNAc(b1-6)GalNAc
In short: as §1

[31] = target: Neu5Ac(a2-6)Gal(b1-4)GlcNAc(b1-6)[Gal(b1-3)GlcNAc(b1-3)]Gal(b1-4)Glc
In short: as §1

[32] = target: Neu5Ac(a2-6)Gal(b1-4)GlcNAc(b1-6)[Gal(b1-3)]GalNAc
In short: as §1

[33] = target: Neu5Ac(a2-6)Gal(b1-4)GlcNAc6S
In short: as §1

Neu5Ac(a2-6)GalNAc = target: Neu5Ac(a2-6)GalNAc
In short: as §1

[34] = target: Neu5Ac(a2-6)GalNAc(b1-4)GlcNAc
In short: as §1

[35] = target: Neu5Ac(a2-6)GalNAc(b1-4)GlcNAc6S
In short: as §1

[36] = target: Neu5Ac(a2-6)GlcNAc(b1-4)GlcNAc
In short: as §1

B1: Gs78B-bfa-542-29-542 (Bacteroides fragilis) (protein)
chain: SEDINRNPLLPTKEDEKMDGVIYGAYLPNLEKSVIPIGTASESTEPVNRYQIGVNLAGDAWAGYMSPRDNKFNGSKNFTNYFMYENWVNYVYSFMVTDVYSPWMQIKRISQDEGTRNDEIYALAQIIKIAALHRTTDMFGPIPYSQVGKGSFKVAYDSQESVYRSFLKELEEAVQTLDDYSNKSKEVLPAFDIVYNGDVNKWMRFANSLMLRLAIRVRFADAGLAKEYAEKAVKHPAGLINSKELAAQMGKGAGLQMKNPLKVINEEYNDTRMGATIYSYLAGYNDARAAVYFVKNNGFKAVRCGIAKSGDAYNGFTRPNVHEDDPLYWMKASEVCFLKAEGALAGFDMGGSAGDFYNAGIRMSFSENGLDNSSAETYLKDSTRKPANYTDTSNGELSANAPSSITIRWENGATEEEKLERIITQKYLAIFPNGQEAWTEWRRTGYPRQIVVAENKTNSAVLIGNGYDLGGVRRLPYPRTEYEQNGENLHNAISQYLGGVDNAATKVWWDKKSK
[1]
  glycan array binding signal (z-score): -0.42
Neu5Ac(a2-6)Gal(b1-4)Glc
  glycan array binding signal (z-score): -0.346
[2]
  glycan array binding signal (z-score): -0.748
[3]
  glycan array binding signal (z-score): -0.457
[4]
  glycan array binding signal (z-score): 1.48
[5]
  glycan array binding signal (z-score): 0.915
[6]
  glycan array binding signal (z-score): -0.77
[7]
  glycan array binding signal (z-score): -0.503
[8]
  glycan array binding signal (z-score): -0.366
[9]
  glycan array binding signal (z-score): -0.22
[10]
  glycan array binding signal (z-score): 0.518
[11]
  glycan array binding signal (z-score): -0.532
[12]
  glycan array binding signal (z-score): -0.355
[13]
  glycan array binding signal (z-score): 1.47
[14]
  glycan array binding signal (z-score): 1.73
[15]
  glycan array binding signal (z-score): -0.495
[16]
  glycan array binding signal (z-score): 1.03
[17]
  glycan array binding signal (z-score): 0.99
[18]
  glycan array binding signal (z-score): -0.454
[19]
  glycan array binding signal (z-score): -0.425
[20]
  glycan array binding signal (z-score): -0.428
[21]
  glycan array binding signal (z-score): 2.67
[22]
  glycan array binding signal (z-score): -0.832
[23]
  glycan array binding signal (z-score): 0.485
[24]
  glycan array binding signal (z-score): -0.49
[25]
  glycan array binding signal (z-score): -0.046
[26]
  glycan array binding signal (z-score): 1.83
[27]
  glycan array binding signal (z-score): -0.632
[28]
  glycan array binding signal (z-score): -0.462
[29]
  glycan array binding signal (z-score): -0.544
[30]
  glycan array binding signal (z-score): 0.134
[31]
  glycan array binding signal (z-score): 0.132
[32]
  glycan array binding signal (z-score): -0.779
[33]
  glycan array binding signal (z-score): -0.838
Neu5Ac(a2-6)GalNAc
  glycan array binding signal (z-score): -0.827
[34]
  glycan array binding signal (z-score): -0.845
[35]
  glycan array binding signal (z-score): -0.619
[36]
  glycan array binding signal (z-score): -0.841
